Data taken from US11111238B2, “Coumarin derivatives, processes for their preparation and uses thereof for the treatment of cancer” (Lead Discovery Center GmbH, priority 2017, dated 2021).

By UniProt entry, the sequences of proteins in these tests, tags left out. Residues count along the entry.
UniProt Q8BKF1, 42-1207 limits assumed: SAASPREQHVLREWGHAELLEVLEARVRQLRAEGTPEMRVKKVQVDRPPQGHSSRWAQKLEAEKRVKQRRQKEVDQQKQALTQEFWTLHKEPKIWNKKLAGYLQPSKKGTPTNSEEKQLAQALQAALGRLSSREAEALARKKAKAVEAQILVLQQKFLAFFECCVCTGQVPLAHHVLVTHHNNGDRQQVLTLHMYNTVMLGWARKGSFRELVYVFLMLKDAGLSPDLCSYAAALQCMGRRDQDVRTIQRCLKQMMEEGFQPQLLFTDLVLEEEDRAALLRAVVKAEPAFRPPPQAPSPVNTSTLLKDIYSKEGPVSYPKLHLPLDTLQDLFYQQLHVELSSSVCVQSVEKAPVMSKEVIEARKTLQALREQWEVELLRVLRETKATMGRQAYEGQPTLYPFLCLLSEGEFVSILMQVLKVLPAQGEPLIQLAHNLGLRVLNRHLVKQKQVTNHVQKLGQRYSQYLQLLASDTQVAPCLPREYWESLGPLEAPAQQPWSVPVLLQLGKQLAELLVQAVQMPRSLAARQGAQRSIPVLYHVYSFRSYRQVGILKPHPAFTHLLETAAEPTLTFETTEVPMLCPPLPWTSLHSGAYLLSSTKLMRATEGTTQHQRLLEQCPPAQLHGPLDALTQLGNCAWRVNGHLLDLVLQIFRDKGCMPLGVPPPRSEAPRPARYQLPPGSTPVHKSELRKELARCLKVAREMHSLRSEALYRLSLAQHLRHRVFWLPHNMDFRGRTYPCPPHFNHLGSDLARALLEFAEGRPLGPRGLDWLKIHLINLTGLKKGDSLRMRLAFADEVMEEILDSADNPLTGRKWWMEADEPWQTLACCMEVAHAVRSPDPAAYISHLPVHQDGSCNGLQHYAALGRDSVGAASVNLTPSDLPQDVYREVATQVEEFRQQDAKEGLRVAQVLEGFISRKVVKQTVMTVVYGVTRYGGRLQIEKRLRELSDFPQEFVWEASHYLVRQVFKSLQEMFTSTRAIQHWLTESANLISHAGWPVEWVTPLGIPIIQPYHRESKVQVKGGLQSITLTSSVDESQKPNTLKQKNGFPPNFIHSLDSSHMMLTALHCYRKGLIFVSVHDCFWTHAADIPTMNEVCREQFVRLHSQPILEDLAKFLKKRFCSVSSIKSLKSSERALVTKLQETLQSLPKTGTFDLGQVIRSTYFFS

Molecular target: mitochondrial RNA-polymerase (POLRMT) (Mus musculus, UniProt Q8BKF1)
Assay: Homogeneous TR-FRET assay for mitochondrial transcription activity
Details: homogeneous TR-FRET assay according to Example 4; activity class
Description: The TR-FRET assay was basically conducted as described in WO2016/193,231A1, especially as described in example 1 (hereby incorporated by reference). With respect to the background of the mitochondrial transcription it is referred to Falkenberg et al. (2002) and Posse et al. (Posse et al., 2015). The method monitors the activity of mitochondrial RNA-polymerase via detection of the formation of its product, a 407 bp long RNA sequence. Detection of the product is facilitated by hybridization of two DNA-oligonucleotide probes to specific and adjacent sequences within the RNA product sequence. Upon annealing of the probes, two fluorophores that are coupled directly to an acceptor nucleotide probe (ATT0647, 5′) or introduced via a coupled streptavidin interacting with a biotinylated donor nucleotide probe on the other side (Europium cryptate, 3′) are brought into sufficient proximity to serve as a fluorescence-donor-acceptor pair as generally described in Walters and Namchuk (2003). Thus, a FRET signal at 665 nm is generated upon excitation at 340 nm.
Briefly, the protocol described here was applied for screening and activity determination in a low-volume 384-well microtiter plate with non-binding surface. For high-throughput application in the 1536-well microtiter plate format, volumes of the reagent mixes were adjusted, maintaining the volumetric ratio. […]

SMILES | mitochondrial transcription activity
Cc1sccc1-c1cc(=O)oc2cc(O[C@H](C)C(=O)N3CCCCC3)ccc12 | + +
Cc1sccc1-c1cc(=O)oc2cc(O[C@H](C)C(=O)N3CCCC(C(=O)O)C3)ccc12 (mixture of isomers) | + +

The match of structure and compound is tentative.
